# From paper PMC5766551
# These are yes or no findings as the source states them, for the method shown. Binding seen in cells or lysates may run through a third protein. Some binding calls cover weakened binding; strength is not graded here. Sequences can lack the tags named with a protein.
# T1: YidC with N-terminal His-tag, wild type (E. coli) (UniProt P25714)
# T1 sequence: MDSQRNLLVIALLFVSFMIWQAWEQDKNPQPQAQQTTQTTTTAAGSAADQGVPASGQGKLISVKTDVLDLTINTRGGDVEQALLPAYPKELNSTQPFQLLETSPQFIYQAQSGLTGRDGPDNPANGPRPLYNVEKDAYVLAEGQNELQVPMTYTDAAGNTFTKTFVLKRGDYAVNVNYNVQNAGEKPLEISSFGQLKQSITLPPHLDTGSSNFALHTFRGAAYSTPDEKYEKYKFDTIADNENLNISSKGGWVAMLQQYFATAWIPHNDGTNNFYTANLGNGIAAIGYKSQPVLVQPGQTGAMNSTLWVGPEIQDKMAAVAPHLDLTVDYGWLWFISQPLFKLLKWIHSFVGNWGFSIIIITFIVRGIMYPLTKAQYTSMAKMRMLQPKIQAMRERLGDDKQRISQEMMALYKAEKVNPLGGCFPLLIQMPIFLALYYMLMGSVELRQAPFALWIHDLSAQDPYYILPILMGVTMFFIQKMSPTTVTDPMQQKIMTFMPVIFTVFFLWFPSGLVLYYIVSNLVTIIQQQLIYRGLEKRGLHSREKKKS
# T2: YidC(Δ3 + Δ4) with N-terminal His-tag (E. coli) (UniProt P25714)
# T2 sequence: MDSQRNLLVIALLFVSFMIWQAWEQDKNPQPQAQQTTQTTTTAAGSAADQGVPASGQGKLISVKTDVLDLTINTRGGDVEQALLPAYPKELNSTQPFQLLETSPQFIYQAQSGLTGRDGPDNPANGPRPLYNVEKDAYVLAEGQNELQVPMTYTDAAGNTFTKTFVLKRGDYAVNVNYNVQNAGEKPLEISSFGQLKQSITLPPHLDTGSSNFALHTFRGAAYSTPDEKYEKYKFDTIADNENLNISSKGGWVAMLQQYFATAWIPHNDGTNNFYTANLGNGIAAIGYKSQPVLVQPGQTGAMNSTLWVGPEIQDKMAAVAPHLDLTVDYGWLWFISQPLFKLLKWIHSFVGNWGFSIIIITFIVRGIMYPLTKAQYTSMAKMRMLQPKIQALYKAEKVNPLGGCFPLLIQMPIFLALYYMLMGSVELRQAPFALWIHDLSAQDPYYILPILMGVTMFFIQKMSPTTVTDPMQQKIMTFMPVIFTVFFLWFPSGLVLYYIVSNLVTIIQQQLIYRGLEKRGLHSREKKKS
# T3: YidC with N-terminal His-tag, wild type (E. coli), P25714
# T3 chain: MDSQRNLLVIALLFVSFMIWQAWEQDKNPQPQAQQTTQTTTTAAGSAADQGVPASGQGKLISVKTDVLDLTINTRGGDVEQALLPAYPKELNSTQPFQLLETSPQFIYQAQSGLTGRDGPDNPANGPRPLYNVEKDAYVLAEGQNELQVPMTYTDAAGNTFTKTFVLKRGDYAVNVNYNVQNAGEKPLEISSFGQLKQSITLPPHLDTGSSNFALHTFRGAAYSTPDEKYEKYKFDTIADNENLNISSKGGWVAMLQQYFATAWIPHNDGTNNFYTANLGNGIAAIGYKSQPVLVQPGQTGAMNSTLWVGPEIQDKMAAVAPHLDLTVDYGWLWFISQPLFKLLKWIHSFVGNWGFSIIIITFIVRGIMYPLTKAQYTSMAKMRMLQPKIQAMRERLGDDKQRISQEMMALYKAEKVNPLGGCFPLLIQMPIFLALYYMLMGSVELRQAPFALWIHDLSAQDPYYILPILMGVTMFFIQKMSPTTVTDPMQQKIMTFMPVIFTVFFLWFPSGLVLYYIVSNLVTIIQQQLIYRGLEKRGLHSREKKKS
# Key:
# Test in all cases: cross-linking; in vivo para-formaldehyde cross-linking (30 min, 37 °C) of BL21 cells expressing YidCHis alone (pBad24); YidC purified via its His-tag; western blot
# [1] = molecular target: T1, YidC with N-terminal His-tag, wild type (E. coli)
# [2] = molecular target: T2, YidC(Δ3 + Δ4) with N-terminal His-tag (E. coli)
# [3] = molecular target: T3, YidC with N-terminal His-tag, wild type …; conditions: remark: other sources report otherwise
binding [1],binding [2],binding [3],Binder
binds,binds,–,"Ffh, the protein component of the bacterial SRP, endogenous (protein, UniProt P0AGD7 1-453) MFDNLTDRLSRTLRNISGRGRLTEDNVKDTLREVRMALLEADVALPVVREFINRVKEKAVGHEVNKSLTPGQEFVKIVRNELVAAMGEENQTLNLAAQPPAVVLMAGLQGAGKTTSVGKLGKFLREKHKKKVLVVSADVYRPAAIKQLETLAEQVGVDFFPSDVGQKPVDIVNAALKEAKLKFYDVLLVDTAGRLHVDEAMMDEIKQVHASINPVETLFVVDAMTGQDAANTAKAFNEALPLTGVVLTKVDGDARGGAALSIRHITGKPIKFLGVGEKTEALEPFHPDRIASRILGMGDVLSLIEDIESKVDRAQAEKLASKLKKGDGFDLNDFLEQLRQMKNMGGMASLMGKLPGMGQIPDNVKSQMDDKVLVRMEAIINSMTMKERAKPEIIKGSRKRRIAAGCGMQVQDVNRLLKQFDDMQRMMKKMKKGGMAKMMRSMKGMMPPGFPGR"
–,–,binds,"FtsY, the SRP receptor, endogenous, P10121 1-497 (protein) MAKEKKRGFFSWLGFGQKEQTPEKETEVQNEQPVVEEIVQAQEPVKASEQAVEEQPQAHTEAEAETFAADVVEVTEQVAESEKAQPEAEVVAQPEPVVEETPEPVAIEREELPLPEDVNAEAVSPEEWQAEAETVEIVEAAEEEAAKEEITDEELETALAAEAAEEAVMVVPPAEEEQPVEEIAQEQEKPTKEGFFARLKRSLLKTKENLGSGFISLFRGKKIDDDLFEELEEQLLIADVGVETTRKIITNLTEGASRKQLRDAEALYGLLKEEMGEILAKVDEPLNVEGKAPFVILMVGVNGVGKTTTIGKLARQFEQQGKSVMLAAGDTFRAAAVEQLQVWGQRNNIPVIAQHTGADSASVIFDAIQAAKARNIDVLIADTAGRLQNKSHLMEELKKIVRVMKKLDVEAPHEVMLTIDASTGQNAVSQAKLFHEAVGLTGITLTKLDGTAKGGVIFSVADQFGIPIRYIGVGERIEDLRPFKADDFIEALFARED"
–,binds,–,"FtsY, the SRP receptor, endogenous (protein, UniProt P10121 1-497) MAKEKKRGFFSWLGFGQKEQTPEKETEVQNEQPVVEEIVQAQEPVKASEQAVEEQPQAHTEAEAETFAADVVEVTEQVAESEKAQPEAEVVAQPEPVVEETPEPVAIEREELPLPEDVNAEAVSPEEWQAEAETVEIVEAAEEEAAKEEITDEELETALAAEAAEEAVMVVPPAEEEQPVEEIAQEQEKPTKEGFFARLKRSLLKTKENLGSGFISLFRGKKIDDDLFEELEEQLLIADVGVETTRKIITNLTEGASRKQLRDAEALYGLLKEEMGEILAKVDEPLNVEGKAPFVILMVGVNGVGKTTTIGKLARQFEQQGKSVMLAAGDTFRAAAVEQLQVWGQRNNIPVIAQHTGADSASVIFDAIQAAKARNIDVLIADTAGRLQNKSHLMEELKKIVRVMKKLDVEAPHEVMLTIDASTGQNAVSQAKLFHEAVGLTGITLTKLDGTAKGGVIFSVADQFGIPIRYIGVGERIEDLRPFKADDFIEALFARED"
